{"source": "PubChem BioAssay AID1159578, Peter MacCallum Cancer Centre, 2015", "assay": "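siRNA pools altering how lymphatic endothelial cells close a scratch wound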 (primary screen)", "system": "human lymphatic endothelial cells", "knock-down reagent": "siRNA pool against human genes, 40 nM", "timing": "48 h after transfection", "read-out": "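High-content imaging of dye-stained cells in a scratch assay measures filled wound area and nuclei per well; duplicate means given as ratio to mock and robust z-score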", "scale": "migration robust z-score: higher = faster migration into the scratch; nuclei per well: higher = more cells in the well", "hit rule": "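Migration changed when robust z exceeds 2 or falls below -2 and mean nuclei number is at least 3300; otherwise not called changed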", "calls": "active = migration changed; inactive = no migration change, or too few cells", "note": "The whole screen tested about 18,000 reagents; this is an unselected part. In the full data, about 1,030 (5.7%) were called active. 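Inactive calls also include pools with fewer than 3300 nuclei, whose migration was not assessed.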 The raw values are shown without normalisation. A number with no mark means an inactive call. Not all columns of the deposit are shown. Reagent sequences are not shown."}
{"Target gene": "LPAR1 (lysophosphatidic acid receptor 1)", "migration robust z-score": 0.18, "migration class with cell-count check": "migration z between -2 and 2; enough cells", "nuclei per well, duplicate mean": 6869}
{"Target gene": "ACACB (acetyl-CoA carboxylase beta)", "migration robust z-score": 1.53, "migration class with cell-count check": "migration z between -2 and 2; enough cells", "nuclei per well, duplicate mean": 6664}
{"Target gene": "MEX3D (mex-3 RNA binding family member D)", "migration robust z-score": -0.7, "migration class with cell-count check": "migration z between -2 and 2; enough cells", "nuclei per well, duplicate mean": 5176}
{"Target gene": "CHMP1B (charged multivesicular body protein 1B)", "migration robust z-score": 0.94, "migration class with cell-count check": "migration z between -2 and 2; enough cells", "nuclei per well, duplicate mean": 5788}
{"Target gene": "PLCH1 (phospholipase C eta 1)", "migration robust z-score": 1.33, "migration class with cell-count check": "migration z between -2 and 2; enough cells", "nuclei per well, duplicate mean": 5892}
{"Target gene": "MTRF1 (mitochondrial translation release factor 1)", "migration robust z-score": 0.54, "migration class with cell-count check": "migration z between -2 and 2; enough cells", "nuclei per well, duplicate mean": 3933}
{"Target gene": "SLC6A16", "migration robust z-score": -0.68, "migration class with cell-count check": "migration z between -2 and 2; enough cells", "nuclei per well, duplicate mean": 6092}
{"Target gene": "DVL2 (dishevelled segment polarity protein 2)", "migration robust z-score": 0.18, "migration class with cell-count check": "migration z between -2 and 2; enough cells", "nuclei per well, duplicate mean": 5762}
{"Target gene": "PPP1R3A (protein phosphatase 1 regulatory subunit 3A)", "migration robust z-score": -0.18, "migration class with cell-count check": "migration z between -2 and 2; enough cells", "nuclei per well, duplicate mean": 6264}
{"Target gene": "MAB21L1 (mab-21 like 1)", "migration robust z-score": 0.12, "migration class with cell-count check": "migration z between -2 and 2; enough cells", "nuclei per well, duplicate mean": 5410}
{"Target gene": "NUDT4 (nudix hydrolase 4)", "migration robust z-score": 1.35, "migration class with cell-count check": "migration z between -2 and 2; enough cells", "nuclei per well, duplicate mean": 5940}
{"Target gene": "CT45A1 (cancer/testis antigen family 45 member A1)", "migration robust z-score": 0.21, "migration class with cell-count check": "migration z between -2 and 2; enough cells", "nuclei per well, duplicate mean": 5294}
{"Target gene": "GOLGA8A (golgin A8 family member A)", "migration robust z-score": 1.66, "migration class with cell-count check": "migration z between -2 and 2; enough cells", "nuclei per well, duplicate mean": 6702}
{"Target gene": "LRRC63 (leucine rich repeat containing 63)", "migration robust z-score": 0.4, "migration class with cell-count check": "migration z between -2 and 2; enough cells", "nuclei per well, duplicate mean": 5508}
{"Target gene": "OLFM4 (olfactomedin 4)", "migration robust z-score": -0.84, "migration class with cell-count check": "migration z between -2 and 2; enough cells", "nuclei per well, duplicate mean": 4038}
{"Target gene": "LDHC (lactate dehydrogenase C)", "migration robust z-score": 0.65, "migration class with cell-count check": "migration z between -2 and 2; enough cells", "nuclei per well, duplicate mean": 5964}
{"Target gene": "ATRAID (all-trans retinoic acid induced differentiation factor)", "migration robust z-score": "-2.46 (active)", "migration class with cell-count check": "migration z below -2; enough cells", "nuclei per well, duplicate mean": 5276}
{"Target gene": "MARVELD2 (MARVEL domain containing 2)", "migration robust z-score": -0.16, "migration class with cell-count check": "migration z between -2 and 2; enough cells", "nuclei per well, duplicate mean": 6014}
{"Target gene": "OR11L1 (olfactory receptor family 11 subfamily L member 1)", "migration robust z-score": 1.01, "migration class with cell-count check": "migration z between -2 and 2; enough cells", "nuclei per well, duplicate mean": 6582}
{"Target gene": "CARD14 (caspase recruitment domain family member 14)", "migration robust z-score": 1.26, "migration class with cell-count check": "migration z between -2 and 2; enough cells", "nuclei per well, duplicate mean": 4074}
{"Target gene": "MSANTD2 (Myb/SANT DNA binding domain containing 2)", "migration robust z-score": 1.04, "migration class with cell-count check": "migration z between -2 and 2; enough cells", "nuclei per well, duplicate mean": 5758}
{"Target gene": "OR2Z1 (olfactory receptor family 2 subfamily Z member 1)", "migration robust z-score": -1.28, "migration class with cell-count check": "migration z between -2 and 2; enough cells", "nuclei per well, duplicate mean": 5694}
{"Target gene": "PA2G4 (proliferation-associated 2G4)", "migration robust z-score": 0.36, "migration class with cell-count check": "migration z between -2 and 2; enough cells", "nuclei per well, duplicate mean": 5094}
{"Target gene": "CAMKK1 (calcium/calmodulin dependent protein kinase kinase 1)", "migration robust z-score": "-2.98 (active)", "migration class with cell-count check": "migration z below -2; enough cells", "nuclei per well, duplicate mean": 3883}
{"Target gene": "TSPAN11 (tetraspanin 11)", "migration robust z-score": 0.45, "migration class with cell-count check": "migration z between -2 and 2; enough cells", "nuclei per well, duplicate mean": 5731}
{"Target gene": "HYCC2 (hyccin PI4KA lipid kinase complex subunit 2)", "migration robust z-score": -0.92, "migration class with cell-count check": "migration z between -2 and 2; enough cells", "nuclei per well, duplicate mean": 4930}
{"Target gene": "ANAPC13 (anaphase promoting complex subunit 13)", "migration robust z-score": -1.58, "migration class with cell-count check": "migration z between -2 and 2; enough cells", "nuclei per well, duplicate mean": 6590}

Ordered by “nuclei per well, duplicate mean” (low to high): 3 of the entries above
{"Target gene": "MEX3D (mex-3 RNA binding family member D)", "migration robust z-score": -0.7, "migration class with cell-count check": "migration z between -2 and 2; enough cells", "nuclei per well, duplicate mean": 5176}
{"Target gene": "ACACB (acetyl-CoA carboxylase beta)", "migration robust z-score": 1.53, "migration class with cell-count check": "migration z between -2 and 2; enough cells", "nuclei per well, duplicate mean": 6664}
{"Target gene": "LPAR1 (lysophosphatidic acid receptor 1)", "migration robust z-score": 0.18, "migration class with cell-count check": "migration z between -2 and 2; enough cells", "nuclei per well, duplicate mean": 6869}
